Data reported in PMC6495379, “Reiterative Synthesis by the Ribosome and Recognition of the N-Terminal Formyl Group by Biosynthetic Machinery Contribute to Evolutionary Conservation of the Length of Antibiotic Microcin C Peptide Precursor” (mBio, 2019).

System: ribosomes
Assay: In vitro translation competition assay (reiterative translation of mccA mRNA)
Format: biochemical
Conditions: in vitro translation at 37°C with and without 10-fold molar excess of competitor mRNA (02.MFF.Oa); from data fitting of n versus N

Row | Substance | nrec, ribosome recycle number (peptide molecules synthesized per active ribosome before ribosome dissociation)
1 | MASTAGGGMRTGNAN [A15, 15-amino-acid MccA-based peptide […]] | 6.3
2 | MGGGMRTGNAN [A11, 11-amino-acid MccA-based peptide […]] | 30
3 | MRTGNAN [A7, 7-amino-acid McC precursor peptide MRTGNAN, chemically synthesized] | 71
